Experimental findings from a compilation of properties of binary mixtures (doi:10.1063/5.0239734) are described below.

The data set can be described thus: xn = mol fraction of the nth substance listed. Conditions: 298.15 K, 100 kPa.

By mass density is commonly meant the mass of a sample divided by its volume.

The densities may have been worked out from excess volumes.

Where the note is “x2 = 0”, `CC#N` + CC1COC(=O)O1 displayed a mass density of 772.8 kg/m3.
For `CC1COC(=O)O1` (stereo not given) + CC#N, the mass density worked out at 858.2 kg/m3 (x1 = 0.1182); 921.1 kg/m3 (x1 = 0.2255); 985.5 kg/m3 (x1 = 0.3385); 1024.5 kg/m3 (x1 = 0.4275); 1063 kg/m3 (x1 = 0.5209); 1105 kg/m3 (x1 = 0.6166). Also, the mass density runs as follows: (x1 = 0.7291) 1141.4 kg/m3; (x1 = 0.863) 1177.2 kg/m3; (x1 = 1) 1219.3 kg/m3.
